# This is a selection; strong and weak results do not stand in their true shares.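 In brief: 96-well plates, 48 h treatment, single concentration, percent growth endpoint.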 The source made the active and inactive calls. The calls were made as follows: active = growth percent below 10; inactive = the rest.
# Tested on: CCRF-CEM leukemia
# Test: NCI-60 one-dose screen, 48 h (100 = growth as untreated, 0 = no growth, -100 = all killed)
# Settings: 10 µM
smiles,measurement,value
NS(=O)(=O)c1ccc(-n2cc(C(=O)NO)c(-c3ccc(Br)cc3)n2)cc1,growth,active: 2.75%
